This is one part of the list. Further columns of the screen follow, without active or inactive calls. Most of these compounds were active or inconclusive in the main read-out, so they are no random draw. Words in brackets tell the shape of the fitted curve; partial curves, single points and poor fits give uncertain potencies.

What is called AC50 is the concentration giving half of the maximal activity seen.

This assay in a line: qHTS Assay to Find Inhibitors of Chronic Active B-Cell Receptor Signaling. As to conditions: ABC-DLBCL IkBa-CBG/CBR reporter, luminescence ratio (green luciferase fused to IkBa over red control in TMD8 lymphoma cells), 4 h; measured here: CBR red luminescence, cell number. The essentials: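 Concentration-response series (up to 46 uM) were applied to TMD8 dual-reporter cells for 4 h at 37C with doxycycline. Green/red ratio, after filter-overlap correction, defined %Activity; red signal alone was normalised to basal cells and zero luminescence.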
On the technique in general: Quantitative high-throughput screening tests each substance at several concentrations.
Regarding `Cc1nnc(N2CCCC(C(=O)NCc3ccc(OC(C)C)cc3)C2)c2nn(-c3ccccc3)c(C)c12` (configuration not stated), the AC50 was 11.2 µM [falling, partial curve]. `Cc1cc2nnn(-c3nnc(-c4ccccc4)c4ccccc34)c2cc1C`: the concentration at half-maximal activity (AC50) was 0.398 µM [rising, partial curve, poor fit]. Consider `Cc1cccc(N2CCN(C(=O)c3ccc(NC(=O)C4CCCO4)cc3)CC2C)c1` (configuration not stated), for which the AC50 was 2.31 µM [rising, partial curve]. On to `CCOC(=O)c1ccc(N2C(=O)c3n[nH]c(C)c3C2c2ccc(OC)cc2OC)cc1` (configuration not stated), for which the AC50 is 0.366 µM [falling, full curve, poor fit]. The result for `Cc1cccc(N/N=C(\C(N)=O)C2=NC(C)(C)Cc3ccccc32)c1` reads 20.6 µM [falling, single point]. With `CCOC(=O)C1=C(N)Oc2cc(O)ccc2C1c1ccc([N+](=O)[O-])cc1` (configuration not stated) the figure was 20 µM [falling, single point]. Take `Cc1cccc(C(=O)NN/C=C/C(=O)c2ccccc2)c1`: the AC50 was 12.6 µM [falling, partial curve]. With `Cc1nn(-c2ccccc2)c(N2CCCC2)c1/C=N/NC(=O)c1cc(-c2ccccn2)nc2ccccc12`, the AC50 was 29.1 µM [falling, single point]. With `C=CCn1c(SCC(=O)N2CC(=O)Nc3ccccc32)nc2scc(-c3cccs3)c2c1=O` the figure was 1.3 µM [falling, partial curve]; with `O=C(Nc1ccc(S(=O)(=O)N2CCN(c3ccccc3)CC2)cc1)c1cccs1`, 0.206 µM [falling, full curve, poor fit]. For the molecule `CCOC(=O)c1sc(=S)sc1SCc1cccc(C(F)(F)F)c1`, the AC50 was 32.6 µM [rising, single point]. Take `COc1ccc(NC(=O)N(C)C[C@@H]2Oc3ccc(NC(=O)NC(C)C)cc3CC(=O)N([C@H](C)CO)C[C@@H]2C)cc1`: the AC50 is 25.9 µM [rising, single point]. On to `COc1ccc(Cl)cc1NC(=O)Nc1ccccc1C(N)=O`, for which the AC50 was 10 µM [rising, partial curve]. For `O=[N+]([O-])c1ccc(Nc2ccc(F)cc2)nc1`, the AC50 is 6.51 µM [rising, full curve].

For the molecule `CN(Cc1ccccc1)C(=O)C1CCN(Cc2cc3ccccc3n2Cc2ccccc2)CC1`, the concentration at half-maximal activity (AC50) is 35.5 µM [falling, partial curve, poor fit]. On to `CC(C)(C)N1CC(C(=O)Nc2cccc(Cl)c2Cl)CC1=O` (configuration not stated), for which the concentration at half-maximal activity (AC50) was 35.5 µM [rising, partial curve, poor fit]. Consider `Cc1ccc(C(=O)Nc2cccc(N3C(=O)C4CCC(C)CC4C3=O)c2)cc1` (configuration not stated), for which the AC50 is 35.5 µM [falling, single point].
